According to article PMC11262655:
These are yes or no findings as the source states them, for the method shown. In cells and extracts the contact can be indirect. Some entries that bind do so weakly or less than the wild type.

The chains behind the UniProt entries cited, without tags or fusion partners.
UniProt Q2EJA0: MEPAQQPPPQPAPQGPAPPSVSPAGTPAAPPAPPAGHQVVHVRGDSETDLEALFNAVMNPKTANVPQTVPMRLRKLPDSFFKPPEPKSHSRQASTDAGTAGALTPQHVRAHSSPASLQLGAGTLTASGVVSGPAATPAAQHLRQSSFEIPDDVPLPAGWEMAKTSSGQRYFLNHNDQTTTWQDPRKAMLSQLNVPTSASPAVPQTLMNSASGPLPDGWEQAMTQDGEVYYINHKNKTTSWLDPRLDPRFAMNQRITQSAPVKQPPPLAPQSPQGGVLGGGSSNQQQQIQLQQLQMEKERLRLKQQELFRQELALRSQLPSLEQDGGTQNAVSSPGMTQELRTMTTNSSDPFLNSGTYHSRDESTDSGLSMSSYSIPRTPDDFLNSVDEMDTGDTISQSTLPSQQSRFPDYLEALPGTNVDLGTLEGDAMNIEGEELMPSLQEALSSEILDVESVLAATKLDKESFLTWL

Target: T1, 14-3-3η protein (rat (endogenous in H9C2)) (UniProt P68511)
T1 sequence: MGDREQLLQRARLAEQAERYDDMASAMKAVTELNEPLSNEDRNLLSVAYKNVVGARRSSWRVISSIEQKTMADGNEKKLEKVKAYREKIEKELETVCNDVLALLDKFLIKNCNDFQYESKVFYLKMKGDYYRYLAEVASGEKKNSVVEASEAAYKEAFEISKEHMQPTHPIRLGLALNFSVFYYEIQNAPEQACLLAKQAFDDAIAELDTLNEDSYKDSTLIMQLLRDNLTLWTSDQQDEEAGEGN
Test: co-IP; H9C2 cell lysate incubated with 5 ug Ywhah antibodies overnight at 4°C, Protein A/G PLUS-Agarose beads 4 hours at 4°C, washed three times with lysis buffer, Western blot

binding: binds
Substance: Yes-associated protein (from UniProt Q2EJA0 1-469)
